No constants are given. Whether binding was seen depends on the method and setting. For some assays here: In cells and extracts the contact can be indirect. For some assays here: Where a sequence is shown, tags or fusion partners need not be part of it. Values belong to the binder of their own block, whether it stands above or below them.
Tests used:
[1] = target: T1, GFP-CMTR1 wild-type (WT) (human), Q8N1G2; test: co-IP; tagged proteins expressed in HeLa cells, IP from cell extracts by the tag (anti-GFP, anti-HA or anti-FLAG), washes with lysis buffer containing 0.1 M NaCl, Western blot; RNase A treatment of the IP in Fig S6B; details: remark: other sources report otherwise
T1 chain: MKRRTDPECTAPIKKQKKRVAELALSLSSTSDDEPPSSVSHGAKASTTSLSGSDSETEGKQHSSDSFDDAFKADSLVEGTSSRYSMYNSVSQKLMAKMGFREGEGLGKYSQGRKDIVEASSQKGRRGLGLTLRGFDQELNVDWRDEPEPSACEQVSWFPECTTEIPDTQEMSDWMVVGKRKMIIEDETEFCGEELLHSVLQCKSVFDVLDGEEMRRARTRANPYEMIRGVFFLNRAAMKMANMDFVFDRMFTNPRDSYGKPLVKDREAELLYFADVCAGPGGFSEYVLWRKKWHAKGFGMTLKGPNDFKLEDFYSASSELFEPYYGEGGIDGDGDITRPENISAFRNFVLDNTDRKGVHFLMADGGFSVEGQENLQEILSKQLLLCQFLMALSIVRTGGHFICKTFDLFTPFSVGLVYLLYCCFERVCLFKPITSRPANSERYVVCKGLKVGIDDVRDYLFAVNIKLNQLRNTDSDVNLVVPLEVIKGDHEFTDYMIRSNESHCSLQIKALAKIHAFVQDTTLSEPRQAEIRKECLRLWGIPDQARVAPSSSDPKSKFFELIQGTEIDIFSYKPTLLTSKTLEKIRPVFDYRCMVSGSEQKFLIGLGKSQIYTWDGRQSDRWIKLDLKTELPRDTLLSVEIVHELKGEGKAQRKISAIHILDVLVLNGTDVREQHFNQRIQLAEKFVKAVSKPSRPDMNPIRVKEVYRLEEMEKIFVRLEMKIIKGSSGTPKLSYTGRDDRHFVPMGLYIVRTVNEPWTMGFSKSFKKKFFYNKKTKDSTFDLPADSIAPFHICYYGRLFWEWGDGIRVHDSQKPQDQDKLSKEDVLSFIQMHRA

[2] = target: T2, recombinant human CMTR1 (human), Q8N1G2; test: SEC; recombinant protein alone on Superdex 200 10/300; fractions by Western blot; elution at 14.5 ml; both purified; details: remark: other sources report otherwise
T2 chain: T1 chain

[3] = target: GFP-DHX15 (human), O43143; test: co-IP; tagged proteins expressed in HeLa cells, IP from cell extracts by the tag (anti-GFP, anti-HA or anti-FLAG), washes with lysis buffer containing 0.1 M NaCl, Western blot; RNase A treatment of the IP in Fig S6B; details: remark: other sources report otherwise
[4] = target: recombinant His6-DHX15 (human), O43143; test: SEC; recombinant protein alone on Superdex 200 10/300; fractions by Western blot; elution at 14.5 ml; both purified; details: remark: other sources report otherwise
[5] = target: T3, endogenous CMTR1 (human (endogenous in HeLa)) (UniProt Q8N1G2); test: co-IP; endogenous proteins, antibody on protein-G Sepharose, extracts of HeLa, HCC1809, U2OS and HEK293 cells, 2 h at 4°C, washes with 0.1 M NaCl, Western blot; sheep IgG as control; RNase A treatment of the IP in Fig 1F
T3 sequence: T1 chain

binding [2]: no binding
B2: recombinant human CMTR1, Q8N1G2 1-835 (enzyme)
chain: T1 chain

binding [3]: no binding
B3: HA-DHX15 WT, O43143 1-795 (enzyme)
chain: MSKRHRLDLGEDYPSGKKRAGTDGKDRDRDRDREDRSKDRDRERDRGDREREREKEKEKELRASTNAMLISAGLPPLKASHSAHSTHSAHSTHSTHSAHSTHAGHAGHTSLPQCINPFTNLPHTPRYYDILKKRLQLPVWEYKDRFTDILVRHQSFVLVGETGSGKTTQIPQWCVEYMRSLPGPKRGVACTQPRRVAAMSVAQRVADEMDVMLGQEVGYSIRFEDCSSAKTILKYMTDGMLLREAMNDPLLERYGVIILDEAHERTLATDILMGVLKEVVRQRSDLKVIVMSATLDAGKFQIYFDNCPLLTIPGRTHPVEIFYTPEPERDYLEAAIRTVIQIHMCEEEEGDLLLFLTGQEEIDEACKRIKREVDDLGPEVGDIKIIPLYSTLPPQQQQRIFEPPPPKKQNGAIGRKVVVSTNIAETSLTIDGVVFVIDPGFAKQKVYNPRIRVESLLVTAISKASAQQRAGRAGRTRPGKCFRLYTEKAYKTEMQDNTYPEILRSNLGSVVLQLKKLGIDDLVHFDFMDPPAPETLMRALELLNYLAALNDDGDLTELGSMMAEFPLDPQLAKMVIASCDYNCSNEVLSITAMLSVPQCFVRPTEAKKAADEAKMRFAHIDGDHLTLLNVYHAFKQNHESVQWCYDNFINYRSLMSADNVRQQLSRIMDRFNLPRRSTDFTSRDYYINIRKALVTGYFMQVAHLERTGHYLTVKDNQVVQLHPSTVLDHKPEWVLYNEFVLTTKNYIRTCTDIKPEWLVKIAPQYYDMSNFPQCEAKRQLDRIIAKLQSKEYSQY

binding [4]: no binding
B4: recombinant His6-DHX15, O43143 1-795 (enzyme)
chain: B3 chain

Further lines, the binder ahead of its results:

B1: HA-CMTR1 WT, Q8N1G2 1-835 (enzyme)
chain: T1 chain
binding [1]: no binding

B5: DHX16 (enzyme, UniProt O60231 1-1041)
chain: MATPAGLERWVQDELHSVLGLSERHVAQFLIGTAQRCTSAEEFVQRLRDTDTLDLSGPARDFALRLWNKVPRKAVVEKPARAAEREARALLEKNRSYRLLEDSEESSEETVSRAGSSLQKKRKKRKHLRKKREEEEEEEASEKGKKKTGGSKQQTEKPESEDEWERTERERLQDLEERDAFAERVRQRDKDRTRNVLERSDKKAYEEAQKRLKMAEEDRKAMVPELRKKSRREYLAKREREKLEDLEAELADEEFLFGDVELSRHERQELKYKRRVRDLAREYRAAGEQEKLEATNRYHMPKETRGQPARAVDLVEEESGAPGEEQRRWEEARLGAASLKFGARDAASQEPKYQLVLEEEETIEFVRATQLQGDEEPSAPPTSTQAQQKESIQAVRRSLPVFPFREELLAAIANHQVLIIEGETGSGKTTQIPQYLFEEGYTNKGMKIACTQPRRVAAMSVAARVAREMGVKLGNEVGYSIRFEDCTSERTVLRYMTDGMLLREFLSEPDLASYSVVMVDEAHERTLHTDILFGLIKDVARFRPELKVLVASATMDTARFSTFFDDAPVFRIPGRRFPVDIFYTKAPEADYLEACVVSVLQIHVTQPPGDILVFLTGQEEIEAACEMLQDRCRRLGSKIRELLVLPIYANLPSDMQARIFQPTPPGARKVVVATNIAETSLTIEGIIYVLDPGFCKQKSYNPRTGMESLTVTPCSKASANQRAGRAGRVAAGKCFRLYTAWAYQHELEETTVPEIQRTSLGNVVLLLKSLGIHDLMHFDFLDPPPYETLLLALEQLYALGALNHLGELTTSGRKMAELPVDPMLSKMILASEKYSCSEEILTVAAMLSVNNSIFYRPKDKVVHADNARVNFFLPGGDHLVLLNVYTQWAESGYSSQWCYENFVQFRSMRRARDVREQLEGLLERVEVGLSSCQGDYIRVRKAITAGYFYHTARLTRSGYRTVKQQQTVFIHPNSSLFEQQPRWLLYHELVLTTKEFMRQVLEIESSWLLEVAPHYYKAKELEDPHAKKMPKKIGKTREELG
binding [5]: no binding

— paper PMC6071836
